Converted amounts (≈) assume the structure as drawn.
Test: physchem
Settings: simulated gi fluid

Row | SMILES | solubility
1 | Cc1nn(C(C)C)cc1-c1nc2c(-c3ccc4c(c3)CCC[C@@H]4NC(=O)c3nc(C(C)(C)C)no3)ccnc2[nH]1 | 7 µg/mL (≈ 13 µM)
2 | Cc1nn(C(C)C)c(C)c1-c1nc2nccc(-c3ccc4c(c3)CCCC[C@H]4NC(=O)c3nc(C(C)(C)C)no3)c2[nH]1 | 33 µg/mL (≈ 58.2 µM)
